These are yes or no findings as the source states them, for the method shown. In cells and extracts the contact can be indirect. Some entries that bind do so weakly or less than the wild type. For some assays here: Tags and fused reporters may be left off the sequences shown.

Experiment [1] has as its target T1, TOC75-V/OEP80 (A. thaliana (endogenous in chloroplasts of seedlings)) (UniProt Q9C5J8).
T1 sequence: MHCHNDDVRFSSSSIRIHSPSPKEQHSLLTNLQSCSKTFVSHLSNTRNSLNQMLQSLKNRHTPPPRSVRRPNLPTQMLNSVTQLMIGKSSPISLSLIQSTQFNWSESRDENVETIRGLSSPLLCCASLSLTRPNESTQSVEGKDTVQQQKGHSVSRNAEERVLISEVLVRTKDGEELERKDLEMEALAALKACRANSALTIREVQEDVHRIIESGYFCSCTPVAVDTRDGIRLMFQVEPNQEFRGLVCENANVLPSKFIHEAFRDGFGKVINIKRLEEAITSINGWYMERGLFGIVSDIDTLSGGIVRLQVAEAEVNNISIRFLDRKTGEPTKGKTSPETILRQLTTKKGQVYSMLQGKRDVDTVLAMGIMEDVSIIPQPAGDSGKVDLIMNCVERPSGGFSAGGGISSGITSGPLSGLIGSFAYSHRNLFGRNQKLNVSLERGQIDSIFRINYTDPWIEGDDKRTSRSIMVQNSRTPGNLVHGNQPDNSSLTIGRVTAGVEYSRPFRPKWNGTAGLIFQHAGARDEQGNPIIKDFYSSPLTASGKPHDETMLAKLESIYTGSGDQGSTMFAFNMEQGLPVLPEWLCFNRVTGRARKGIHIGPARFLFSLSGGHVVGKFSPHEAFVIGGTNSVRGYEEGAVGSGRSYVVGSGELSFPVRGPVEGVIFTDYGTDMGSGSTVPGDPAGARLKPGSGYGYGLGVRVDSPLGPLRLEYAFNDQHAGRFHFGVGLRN
As to the kind of experiment: co-IP.

Experiment [2] has as its target T2, CRL-GFP (35S::CRL-sGFP(S65T)) (A. thaliana) (UniProt Q9FI46).
T2 sequence: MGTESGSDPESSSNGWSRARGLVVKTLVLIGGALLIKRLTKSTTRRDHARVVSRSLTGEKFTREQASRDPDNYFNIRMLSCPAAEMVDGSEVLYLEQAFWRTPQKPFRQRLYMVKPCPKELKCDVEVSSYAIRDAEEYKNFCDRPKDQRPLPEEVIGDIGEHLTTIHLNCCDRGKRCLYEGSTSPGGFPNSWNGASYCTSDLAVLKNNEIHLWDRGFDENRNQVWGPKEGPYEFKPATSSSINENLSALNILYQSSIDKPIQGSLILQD
Put plainly: co-IP.

B1: CRUMPLED LEAF (CRL) (protein, UniProt Q9FI46 1-269)
chain: MGTESGSDPESSSNGWSRARGLVVKTLVLIGGALLIKRLTKSTTRRDHARVVSRSLTGEKFTREQASRDPDNYFNIRMLSCPAAEMVDGSEVLYLEQAFWRTPQKPFRQRLYMVKPCPKELKCDVEVSSYAIRDAEEYKNFCDRPKDQRPLPEEVIGDIGEHLTTIHLNCCDRGKRCLYEGSTSPGGFPNSWNGASYCTSDLAVLKNNEIHLWDRGFDENRNQVWGPKEGPYEFKPATSSSINENLSALNILYQSSIDKPIQGSLILQD
Regarding B1, the binding result in experiment [1] is listed as “binds”.

B2: TOC75-V/OEP80 (protein, UniProt Q9C5J8 1-732)
chain: MHCHNDDVRFSSSSIRIHSPSPKEQHSLLTNLQSCSKTFVSHLSNTRNSLNQMLQSLKNRHTPPPRSVRRPNLPTQMLNSVTQLMIGKSSPISLSLIQSTQFNWSESRDENVETIRGLSSPLLCCASLSLTRPNESTQSVEGKDTVQQQKGHSVSRNAEERVLISEVLVRTKDGEELERKDLEMEALAALKACRANSALTIREVQEDVHRIIESGYFCSCTPVAVDTRDGIRLMFQVEPNQEFRGLVCENANVLPSKFIHEAFRDGFGKVINIKRLEEAITSINGWYMERGLFGIVSDIDTLSGGIVRLQVAEAEVNNISIRFLDRKTGEPTKGKTSPETILRQLTTKKGQVYSMLQGKRDVDTVLAMGIMEDVSIIPQPAGDSGKVDLIMNCVERPSGGFSAGGGISSGITSGPLSGLIGSFAYSHRNLFGRNQKLNVSLERGQIDSIFRINYTDPWIEGDDKRTSRSIMVQNSRTPGNLVHGNQPDNSSLTIGRVTAGVEYSRPFRPKWNGTAGLIFQHAGARDEQGNPIIKDFYSSPLTASGKPHDETMLAKLESIYTGSGDQGSTMFAFNMEQGLPVLPEWLCFNRVTGRARKGIHIGPARFLFSLSGGHVVGKFSPHEAFVIGGTNSVRGYEEGAVGSGRSYVVGSGELSFPVRGPVEGVIFTDYGTDMGSGSTVPGDPAGARLKPGSGYGYGLGVRVDSPLGPLRLEYAFNDQHAGRFHFGVGLRN
Take B2: the binding result in experiment [2] is “binds”.
